## Library screening results

Sequences of proteins named here, by UniProt entry; tags and fusion partners are left off.
UniProt E9BF75, entry or part of it: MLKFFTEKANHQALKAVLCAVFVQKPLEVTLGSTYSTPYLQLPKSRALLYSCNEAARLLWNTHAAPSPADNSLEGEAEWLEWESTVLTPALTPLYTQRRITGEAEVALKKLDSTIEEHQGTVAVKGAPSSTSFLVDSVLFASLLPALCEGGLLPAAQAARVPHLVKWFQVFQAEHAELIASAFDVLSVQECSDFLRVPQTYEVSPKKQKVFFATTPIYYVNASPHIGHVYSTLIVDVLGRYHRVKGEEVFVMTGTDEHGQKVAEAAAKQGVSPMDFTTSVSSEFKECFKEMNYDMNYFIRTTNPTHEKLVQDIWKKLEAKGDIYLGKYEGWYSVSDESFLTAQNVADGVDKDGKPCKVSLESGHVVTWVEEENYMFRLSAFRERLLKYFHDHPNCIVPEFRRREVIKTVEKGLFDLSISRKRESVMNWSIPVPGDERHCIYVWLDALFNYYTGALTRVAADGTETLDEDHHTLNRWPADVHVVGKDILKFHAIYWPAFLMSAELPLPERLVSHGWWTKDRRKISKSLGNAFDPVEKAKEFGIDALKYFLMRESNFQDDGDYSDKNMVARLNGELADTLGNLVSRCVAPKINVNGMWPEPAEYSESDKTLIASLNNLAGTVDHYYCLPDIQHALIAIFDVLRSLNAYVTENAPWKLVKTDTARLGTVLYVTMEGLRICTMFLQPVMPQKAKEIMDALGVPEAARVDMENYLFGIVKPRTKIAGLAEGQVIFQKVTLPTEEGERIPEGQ

From ChEMBL document CHEMBL3988442, “University of Dundee, Small-Polar-MMV Screening Library” (2021).

Mtb heat-shock: 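Assay on Mycobacterium tuberculosis, filed only as a heat shock assay from Cornell; the read-out is not stated. The concentration is filed as 10 mM, unlikely as a test dose, so the dose is not known. The record gives no direction; compounds that gave an IC50 in retests scored well above the rest, so higher reads as stronger inhibition. Of about 69,000 compounds tested this way, about 930 (1.4%) reached 50% or more in at least one test.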
LdMetRS: 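Methionyl-tRNA synthetase (putative), Leishmania donovani (UniProt E9BF75). Primary screen of methionyl-tRNA synthetase; the read-out is not stated. The test concentration is not given. The values are filed as inhibition. Size under these conditions: about 68,000 compounds, about 24 of them at 50% or above in at least one test.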
Mtb growth Cornell: 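Whole-cell assay for inhibitors of Mycobacterium tuberculosis growth, labelled Cornell in the record; the read-out is not stated. The concentration is filed as 10 mM, unlikely as a test dose, so the dose is not known. Higher means stronger inhibition (inferred from two other growth screens of the library). About 53,000 compounds were tested under these conditions; 1.7% (about 900) showed 50% or more at least once.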

All values are in %. How 0% and 100% were set is not recorded. Most values in the screen are low, and negative values occur. This is an unselected part of the compounds tested. A dash means the value is not listed here; it may have been measured.

compound,Mtb heat-shock,LdMetRS,Mtb growth Cornell
O=C(O)C(F)(F)F.[H][C@@]12CCN(S(=O)(=O)C3CC3)[C@@]1([H])CCN2C(=O)c1ccccn1,-24.59%,-,-17.2%
O=C(c1cn(-c2ccccc2Cl)nn1)N1CCSCC1,-20.27%,3.429%,-
O=S1(=O)CCN2C(=N1)Oc1ccc(Cl)cc12,2.742%,2.332%,-7.374%
COCCN1CCN(CC(=O)N(C)Cc2ccsc2)CC1,4.381%,10.84%,-2.974%
CN1CCCC(c2cccc(-c3cccc(F)c3)n2)C1 (stereo unspecified),-0.625%,17.02%,35.86%
O=C(N[C@@H]1CN(Cc2ccco2)[C@@H]2CCCO[C@@H]21)c1cscn1,-,6.202%,-
O=C(CCn1c(C(F)(F)F)cc2cccnc21)N1CCOCC1,-,14.15%,-
CC(C)c1noc(CCC(=O)N2CCN(Cc3ccncc3)CC2)n1,-11.93%,21.79%,-
CN(CC(C)(C)O)C(=O)Nc1ccc(F)c(-n2cccc2)c1,-3.133%,14.21%,-
Oc1ccccc1-c1cc(-c2nc(C3CC3)n[nH]2)[nH]n1,12.31%,7.216%,29.17%
Cc1ccc(Br)cc1C(=O)Nc1cc(C(N)=O)n(C)c1,35.39%,10.34%,11.61%
Cc1cccc(N2CCN(S(=O)(=O)CCN)CC2)c1,-13.64%,3.147%,-7.377%
CCS(=O)(=O)N1CC(c2nc(-c3ccncc3)no2)C1,-12.19%,10.56%,-1.783%
CC(NC(=O)c1cccc(CCC(C)(C)O)c1)c1nnc(N)s1 (stereo unspecified),-22.33%,8.04%,-16.3%
CN1CCC2(CCCN(C(=O)c3cncn3C)C2)CC1.O=C(O)C(F)(F)F,-14.71%,-,9.527%
CCCNC(=O)[C@@H]1CCCN1[C@@H](C(=O)NC)C1CC1,-,-3.297%,-
Cc1nnc(C2CCN(C(=O)c3ccc4nccnc4c3)CC2)s1,2.316%,12.23%,12.87%
CN(C)C(=O)CCc1cncc(C2CCCN2Cc2ccccn2)n1 (stereo unspecified),2.03%,5.882%,-
CCC(Nc1nccc(C2CCCC2)n1)c1ccccn1 (stereo unspecified),0.1591%,7.216%,21.88%
O=C(Cn1c(=O)nc2n1C(=O)N(c1ccccc1)C2)Nc1ccccc1,8.525%,9.63%,20.04%
O=C1CC(c2ccc(C(=O)O)cc2)c2ncn(-c3cccc(Cl)c3)c2N1 (stereo unspecified),16.1%,-1.299%,5.915%
CC(C)CNC(=O)CC1OCCc2ccsc21 (stereo unspecified),-24.08%,9.777%,-13.34%
COc1ccc(CC(=O)N(C)C2CCN(C)C2=O)cc1F (stereo unspecified),-26.09%,9.946%,7.044%
Cc1cc(C2CCCN(Cc3cccnc3)C2)n[nH]1 (stereo unspecified),-20.46%,3.484%,-
O=C(O)C(F)(F)F.[H][C@]12CCN(C(=O)c3ccoc3)[C@@]1([H])CC[C@H](COCCN(C)C)O2,-32.7%,-,1.659%
Cn1cc(CN2CCCC3(CCCN3S(C)(=O)=O)C2)cn1 (stereo unspecified),-,15.02%,-
CNCc1cn(C[C@H]2CC3CCN2C[C@@H]3C(=O)Nc2ccccc2)nn1 (stereo partly specified),-10.95%,11.54%,-
O=C(Cc1cccs1)N1CCOCC1c1ccccc1 (stereo unspecified),-30.88%,7.904%,-
CC(CN1CCCC1=O)NC(=O)c1cc(=O)[nH]c2ccc(Cl)cc12 (stereo unspecified),13.01%,20.36%,22.42%
CCCSc1ncc(C2CC(=O)NCc3nc4ccccn4c32)cn1 (stereo unspecified),23.86%,15.38%,-
O=C(NCc1ccoc1)Nc1cc(C(F)(F)F)c[nH]c1=O,27.75%,18.95%,-
Cc1nc2scc(C)n2c1CNc1ccc(C(=O)O)cc1,-12.99%,1.95%,-
Cc1cccc(-n2nc(CC(C)C)nc2[C@H](C)O)c1,-18.18%,9.028%,-10.03%
Cn1cc(C2CCCN2c2ncnc3[nH]ccc23)cn1 (stereo unspecified),17.6%,2.899%,-14.9%
Fc1ccc(CN2CCOCC3(CCN(Cc4nccs4)C3)C2)cc1.O=C(O)C(F)(F)F.O=C(O)C(F)(F)F (stereo unspecified),-27.72%,-,4.511%
CN(Cc1ccco1)C[C@H]1OC[C@@H]2CCN(Cc3cccnc3)C[C@@H]21,-,12.97%,-
Cc1n[nH]c(C)c1C1COCCN1C(=O)c1ccc(Cl)o1 (stereo unspecified),-11.43%,14.21%,-
Cc1cc(C(C)NC(=O)Cn2nc(C)c3ccccc3c2=O)c(C)o1 (stereo unspecified),-21.51%,13.89%,-22.2%
CC(C)c1cc(NCC(C)N2CCCC2)n2nccc2n1 (stereo unspecified),19.07%,15.58%,-
Cc1ccc(C(=O)N2CCc3ncnc(-c4cnn(C)c4)c3CC2)cn1.O=C(O)C(F)(F)F,-33.4%,-,-
[H][C@]12C[C@@H](C(=O)NCCOC)CO[C@@]1([H])CCN(Cc1cccs1)C2,78.89%,-,-4.679%
COCc1ccccc1CNCc1c(C)nn(C)c1N(C)C,20.9%,11.11%,23.38%
O=C(NCc1cnc2n1CCN(Cc1nccs1)CC2)C1CCC1.O=C(O)C(F)(F)F,-30.4%,-,-
CN1CCCN(C(=O)c2cc3c(s2)CCN3C(=O)c2ccccc2)CC1,-3.518%,18.25%,-23.58%
Cc1ccc(C(=O)N(C)CC(=O)N2CCCC2)c(C)c1,-0.8092%,11.85%,12.42%
CC(CNCc1ccc(Cl)cc1)Oc1ccccn1 (stereo unspecified),-,1.515%,-
CC(C)Nc1ncnc2c1CCN(C(=O)CC1CCCC1)CC2,-10.51%,12%,20.3%
CC(=O)c1cn(CC(=O)N2CCCC(O)(CO)C2)c2ccccc12 (stereo unspecified),7.488%,13.24%,17.86%
CCS(=O)(=O)N1CCCC2(COCCN(c3nnc(C)o3)C2)C1.O=C(O)C(F)(F)F (stereo unspecified),-20.82%,-,-21.71%
CN(C(=O)CN1CCCC1c1cnn(C)c1)C1(C#N)CCCCC1 (stereo unspecified),-37.91%,9.03%,-0.4667%
COc1c(CNCc2ccc(S(C)(=O)=O)cc2)c(C)nn1C,-15.93%,22.95%,-
Cc1ccc(CNC(=O)N2CCCCC2CCNS(C)(=O)=O)cc1 (stereo unspecified),-3.445%,6.884%,-
Cc1cnc(CC2COCCN(Cc3nccn3C)C2)cn1 (stereo unspecified),-16.82%,14.35%,-
COc1cc(N(C)Cc2noc(CC(C)C)n2)ncn1,8.849%,12.79%,-
Cc1ccccc1CNC(=O)Cc1c(C)nc2cc(=O)[nH]n2c1C,17.46%,17.35%,-
Cc1ccc(CN2CCCn3c(nc(Cn4ccnc4)cc3=O)C2)s1,-8.037%,5%,-
CC(C)(C)CC(=O)Nc1ccc(S(C)(=O)=O)nc1,-9.8%,14.43%,10.05%
O=C(O)C(F)(F)F.[H][C@@]12CCCO[C@]1([H])[C@H](N(CC)CC)CN2C(=O)c1ccc(C#N)cc1,5.261%,-,17.93%
Brc1cccnc1OC1CCNCC1.Cl,-13.22%,-,-33.9%
Cc1cc(CN2CCC(CNC(=O)Cc3ccc(F)cc3)C2)[nH]n1 (stereo unspecified),-9.663%,10.65%,2.198%
O=C1CCCCN1CC(=O)N1CCCC(c2ccccc2)C1 (stereo unspecified),28.98%,6.272%,-2.265%
Cc1nc(CN2CCN(C(=O)CCc3nc(C(C)(C)C)no3)CC2)cs1,-28.95%,16.57%,-
COc1ccc(C(=O)C2CCCN(Cc3ccc(C)o3)C2)c(OC)c1 (stereo unspecified),-13.45%,14.07%,11.98%
CCOC(=O)CNC(=O)Cn1c(-c2ccoc2)nc(C)c1C,4.975%,6.389%,5.085%
CCCN1CCN(C(=O)c2cccnc2)CC1,12.97%,4.087%,-44.71%
CC(C)c1noc(CCCC(=O)Nc2cccc(F)c2)n1,-8.848%,4.7%,-20.44%
O=C(NCc1ccco1)[C@H]1CC[C@@H]2[C@@H](CCN2Cc2nccs2)O1,-,12.37%,-
CC(C)(C)S(=O)(=O)CCNC(=O)NCCCc1cccc(F)c1,-29.59%,0.3497%,-28.51%
CN(CC(N)=O)C(=O)c1cn(-c2ccc(Br)cc2)cn1,-25.98%,5.85%,-
Cc1ccc(S(=O)(=O)NC(=O)CCOCC(C)C)s1,16.17%,1.449%,-10.42%
O=C(c1csnn1)N1CCCC(n2cncn2)C1 (stereo unspecified),-13.43%,2.849%,-24.47%
CCc1nc2n(n1)CC(NCc1nc3ccccc3o1)CC2 (stereo unspecified),-128%,9.366%,-

Repeated from the top, 4 entries:

- O=C(O)C(F)(F)F.[H][C@@]12CCN(S(=O)(=O)C3CC3)[C@@]1([H])CCN2C(=O)c1ccccn1 : Mtb heat-shock: -24.59%; Mtb growth Cornell: -17.2%
- O=C(c1cn(-c2ccccc2Cl)nn1)N1CCSCC1 : Mtb heat-shock: -20.27%; LdMetRS: 3.429%
- O=S1(=O)CCN2C(=N1)Oc1ccc(Cl)cc12 : Mtb heat-shock: 2.742%; LdMetRS: 2.332%; Mtb growth Cornell: -7.374%
- COCCN1CCN(CC(=O)N(C)Cc2ccsc2)CC1 : Mtb heat-shock: 4.381%; LdMetRS: 10.84%; Mtb growth Cornell: -2.974%